The nature of this assay: qHTS Assay to Find Inhibitors of Chronic Active B-Cell Receptor Signaling. As to conditions: ABC-DLBCL IkBa-CBG/CBR reporter, luminescence ratio (green luciferase fused to IkBa over red control in TMD8 lymphoma cells), 4 h. In short, it runs like this: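 Doxycycline induced both beetle luciferases in TMD8 lymphoma cells; IKK-driven degradation limits the IkappaBalpha-fused green signal, while red luminescence normalises for cell number and nonspecific effects. Compounds tested up to 46 uM, 4 hrs.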

Setting [1] is: measured here: CBR red luminescence, cell number.

These results are taken from PubChem BioAssay AID493014 (National Center for Advancing Translational Sciences (NCATS), 2011).

This is one part of the list. These are further read-outs of the screen, such as a control signal, another cell line or another target. No call is given for them. Compounds called inactive in the main read-out are mostly missing here. The note in brackets gives the kind of curve behind each potency; many fits are weak.

`COC(=O)c1ccccc1NC(=O)c1cc(-c2ccc(O)cc2)on1`: the AC50 under setting [1] is 0.316 µM [falling, full curve, poor fit].
Regarding `Cn1c(-c2ccccc2F)cc2onc(-c3ccccc3)c2c1=O`, under setting [1], the AC50 was 0.146 µM [rising, full curve, poor fit].
The same measure, in the same setting: to `O=C(CC1Nc2ccccc2NC1=O)NCCc1ccccc1` (centres undefined) belongs 13 µM [falling, partial curve, poor fit]; to `c1ccc(CNc2nc(-c3ccccn3)nc3ccccc23)cc1`, 12.6 µM [falling, partial curve].
On the same count and under the same terms, to `O=C(NC1CCCC1)c1n[nH]c2ccccc12` belongs 11.2 µM [falling, partial curve]; to `O=C(CCl)N(C1CCCC1)C1CCS(=O)(=O)C1` (centres undefined), 35.5 µM [falling, single point].
Take `COc1ccc(C)cc1NC(=O)C12CCC(C)(C(=O)O1)C2(C)C` (centres undefined): under setting [1], the AC50 is 6.51 µM [rising, single point].
Regarding `CC(C)(C)c1csc(N(CCC#N)CCC#N)n1`, the AC50 under setting [1] was 0.259 µM [rising, full curve, poor fit].
For the compound `COc1cc(/C=N/n2cnnc2)ccc1OC(=O)c1ccncc1`, under setting [1], the AC50 was 7.08 µM [falling, partial curve].
On to `CCCCN(C)CCCNC(=O)c1cc(-c2cccs2)nc2ccccc12`, for which the AC50 under setting [1] was 35.5 µM [falling, single point].
Same read-out and setting: to `Cc1cccc(CSCc2nnc(N)s2)c1` belongs 29.1 µM [rising, partial curve]; to `Cc1ccc2cccc(OCCCOc3ccccc3F)c2n1`, 0.708 µM [rising, partial curve, poor fit]; to `Cc1nc2sc3c(c2c(=O)o1)CCC3`, 6.51 µM [rising, single point].
On the same count and under the same terms, to `Cc1ccc(NC(=O)c2ccccc2O)cc1` belongs 6.51 µM [falling, partial curve]; to `Cc1ccc2cc(/C=N/NC(=O)c3ccccc3O)c(Cl)nc2c1`, 14.6 µM [falling, partial curve, poor fit].
On to `O=C(/C=C/c1ccco1)Nc1ccc2c(c1)OCO2`, for which the AC50 under setting [1] was 5.01 µM [falling, partial curve].
Turning to `CC(C)COc1nc2ccccc2nc1C(C#N)C(=O)NC1CCCCC1` (centres undefined), the AC50 under setting [1] is 2.31 µM [rising, full curve].
Regarding `COCC(C)NC(=O)CCS(=O)(=O)c1nc(-c2ccc(OC)cc2)cc(C(F)(F)F)n1` (centres undefined), under setting [1], the AC50 is 2.91 µM [falling, full curve].
Consider `CSc1nc(-c2ccccc2)cn1-c1ccc(NC(C)=O)cc1`, for which the AC50 under setting [1] was 20 µM [falling, single point].
Regarding `CCOc1cccc2sc(NN)nc12`, the AC50 under setting [1] was 5.01 µM [falling, full curve].
Still for that read-out and setting: to `O=C1/C(=C\c2cccnc2)CCc2ccccc21` belongs 35.5 µM [falling, single point]; to `O=C(CCCC(=O)N(CC(=O)NC1CCCC1)Cc1ccccc1Cl)Nc1ccccn1`, 10 µM [falling, partial curve, poor fit].
On to `Cc1csc(NC(=O)c2cn3ccccc3n2)n1`, for which the concentration at half-maximal activity (AC50) under setting [1] is 6.31 µM [falling, partial curve, poor fit].
Turning to `CCOC(=O)C1=C(C)N(c2ccccc2)C(=O)/C1=C\c1cccs1`, the AC50 under setting [1] is 29.1 µM [rising, single point].
Same read-out and setting: to `Cc1cc(C)c2c(N)c(C(=O)Nc3nccs3)sc2n1` belongs 15.8 µM [falling, partial curve, poor fit].
Regarding `CCOC(=O)CC1(c2ccc(OC)c(OC)c2)C(=O)c2ccccc2C1=O`, the AC50 (measured here: IkBa-CBG green luminescence) was 20 µM [falling, partial curve, poor fit].
Consider `CCOc1ccc(NC(=O)CCSc2nc3c(c(CC)c2C#N)C(=O)CC(C)(C)C3)cc1`, for which the AC50 under setting [1] was 18.4 µM [falling, single point].
Turning to `CC[C@]12c3[nH]c4cc(CCC(=O)N(C)C)ccc4c3CCN1C(=O)[C@@H](CC(=O)NCCN1CCOCC1)C[C@@H]2C(=O)N1CCN(C(=O)c2ccco2)CC1`, the AC50 under setting [1] is 3.26 µM [rising, full curve].
Consider `CCOC(=O)C(C)(C)N(Cc1ccccc1C)S(=O)(=O)c1ccc(Cl)c([N+](=O)[O-])c1`, for which the AC50 under setting [1] was 20.6 µM [falling, single point].
Regarding `CCOC(=O)CSc1ccc(C(=O)Nc2ccc(Cl)cc2)cn1`, the AC50 under setting [1] is 12.6 µM [falling, partial curve, poor fit].
Regarding `COc1ccc(C(O)P(=O)(O)CCc2ccccc2)cc1` (centres undefined), the AC50 under setting [1] is 0.794 µM [falling, full curve, poor fit].
Take `COc1ccccc1C(=O)N/N=C/c1cnc2ccccc2n1`: under setting [1], the AC50 is 10.3 µM [falling, partial curve, poor fit].
Regarding `Cc1ccc(CN2C(=O)S/C(=C\c3ccccc3OCC(=O)O)C2=O)cc1`, the AC50 under setting [1] was 22.4 µM [falling, single point].
For `O=C(NCCCN1CCCCCC1)C1CC(=O)N(CCc2ccccc2)C1` (centres undefined), the AC50 under setting [1] was 6.31 µM [rising, single point].
As for `O=C(CCc1nc(-c2ccc(F)cc2)no1)NCc1ccccc1CN1CCOCC1`, the AC50 under setting [1] was 0.731 µM [rising, full curve, poor fit].
For the compound `O=C(CCC(=O)c1ccc(Oc2ccccc2)cc1)Nc1ccc(C(=O)O)cc1`, the AC50 under setting [1] is 4.47 µM [falling, partial curve, poor fit].
With `S=c1nc[nH]c2c1ncn2C1CCCO1` (centres undefined), the AC50 under setting [1] is 3.55 µM [rising, full curve].
Same read-out and setting: to `COC(=O)c1ccc(CN2C(=O)NC3(CCCCC3)C2=O)cc1` belongs 20 µM [falling, single point]; to `CCCCOC(=O)c1ccc(N)cc1`, 14.6 µM [rising, single point]; to `CCOc1ccc(NC(=O)CN(C)C(=O)CCCc2c[nH]c3ccccc23)cc1OCC`, 9.2 µM [falling, partial curve].
For the compound `Cc1ccc(-c2nnc(NC3CCCC3)s2)cc1`, the AC50 under setting [1] was 8.91 µM [falling, partial curve].
Consider `CCOC(=O)c1ccc(N2C(=O)[C@@H](c3ccccc3)[C@H]2c2ccccc2)cc1`, for which the AC50 under setting [1] was 20.6 µM [rising, single point].
As to `CSc1ncccc1C(=O)OCc1c(F)cccc1Cl`, the AC50 under setting [1] was 11.2 µM [rising, partial curve].
For `COc1cc(/C=C2/SC(=Nc3ccc(O)cc3)NC2=O)cc(OC)c1O`, under setting [1], the AC50 was 0.2 µM [falling, full curve, poor fit].
